# Microarray screen: hit calls

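The test is a small-molecule microarray: each compound is printed twice on a reactive slide, and binding shows as fluorescence of the labelled oligonucleotide after washing. For the PreQ1, TPP and SAM-II riboswitches the laboratory earlier reported (doi:10.1038/s41467-019-09493-3) 1 µM RNA, 2 h, and a rule that included a mean Z-score above 3 (spot signal-to-noise against the whole library), a score well above that on a control array, and duplicate spots agreeing (coefficient of variation under 100). The data file gives only the calls; its cut-offs may differ, and compounds hitting several targets are kept. A missing hit is not proof of no binding, and a hit is not a measured affinity.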 A compound is marked active if it was called a hit and inactive if it was screened but was not. The compounds are a random part of those screened. A target missing from an entry has no call listed here.

Targets, with sequences 5′ to 3′:
PreQ1: PreQ1 riboswitch RNA pseudoknot, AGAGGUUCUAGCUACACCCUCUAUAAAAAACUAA. From B. subtilis. About 24,000 compounds screened, about 170 hits.
TPP: TPP riboswitch RNA three-way junction, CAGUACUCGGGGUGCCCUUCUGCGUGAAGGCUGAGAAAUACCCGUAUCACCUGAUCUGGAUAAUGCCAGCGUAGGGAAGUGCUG. About 24,000 compounds screened, about 160 hits.
SAM-II: SAM-II riboswitch RNA pseudoknot, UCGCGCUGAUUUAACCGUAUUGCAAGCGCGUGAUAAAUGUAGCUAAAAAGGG. About 21,000 compounds screened, about 200 hits.

Calls for CC(Cc1ccccc1F)NCc1nc(C2CCCCC2)no1 (stereo not given) are PreQ1: inactive; TPP: inactive; SAM-II: inactive.
Calls for CCCCOc1ccc(CC(=O)NO)cc1 are PreQ1: inactive; TPP: inactive; SAM-II: inactive.
Calls for Nc1nonc1C(=O)N1CCN(C(=O)c2ccccc2Cl)CC1 are PreQ1: inactive; TPP: inactive.
Calls for O=C(OCCNC1=NS(=O)(=O)c2ccccc21)c1ccco1 are PreQ1: inactive; TPP: inactive; SAM-II: inactive.
Calls for CNc1nc2c(c(=O)[nH]c(=O)n2C)n1CC(O)COc1ccc(Cl)cc1 (stereo not given) are PreQ1: inactive; TPP: inactive; SAM-II: inactive.
Calls for N#Cc1c(N)nc2c(c1-c1cccnc1)CCCC2 are PreQ1: inactive; TPP: inactive; SAM-II: inactive.
Calls for c1cncc(CNc2cccc(-c3nc4ccccc4[nH]3)c2)c1 are PreQ1: inactive; TPP: inactive; SAM-II: inactive.
Calls for O=C1/C(=C\c2ccccc2)C2OCC=C3CN4CCC56c7ccccc7N1C5C2C3CC46 (stereo not given) are PreQ1: inactive; TPP: inactive; SAM-II: inactive.
Calls for NC(=O)c1ccc(-c2nc([C@@H]3C[C@@H](O)CN3)n(Cc3ccccc3)n2)cc1 are PreQ1: inactive; TPP: inactive; SAM-II: inactive.
Calls for O=C(c1ccc(OCc2ccccc2F)cc1)N1CCOCC(CO)C1 (stereo not given) are PreQ1: inactive; TPP: inactive; SAM-II: inactive.
Calls for COc1nccnc1N(C)CC1(CO)CCOCC1 are PreQ1: inactive; TPP: inactive; SAM-II: inactive.
Calls for CC1CCN(Cc2ccc(C(=O)N3C[C@H](c4ccccc4)[C@@H](N)C3)o2)CC1 are PreQ1: inactive; TPP: inactive; SAM-II: inactive.
Calls for CNC(=O)[C@@H]1C[C@H](N)CN1C(=O)CCS(=O)(=O)c1ccc(C)cc1 are PreQ1: inactive; TPP: inactive; SAM-II: inactive.
Calls for Nc1nc(-c2ccc3c(c2)Cc2ccccc2-3)cs1 are PreQ1: inactive; TPP: inactive; SAM-II: active.
Calls for Cc1c(Cl)cccc1NC(=O)CC1Sc2ccccc2NC1=O (stereo not given) are PreQ1: inactive; TPP: inactive; SAM-II: inactive.
Calls for N#CC1=C(N)Oc2[nH]nc(-c3ccc4c(c3)OCO4)c2C1c1ccc(F)cc1 (stereo not given) are PreQ1: inactive; TPP: inactive; SAM-II: inactive.
Calls for C[C@]12C=CC(=O)C=C1CC[C@H]1[C@H]3CC[C@](O)(C(=O)CO)[C@@]3(C)CC(=O)[C@@H]12 are PreQ1: inactive; TPP: inactive; SAM-II: inactive.
Calls for Cc1nc(CCCNC2CCOC3(CCOCC3)C2)sc1C (stereo not given) are PreQ1: inactive; TPP: inactive; SAM-II: inactive.
Calls for CC(=O)Nc1ccc(OC[C@](C)(O)C(=O)Nc2ccc([N+](=O)[O-])c(C(F)(F)F)c2)cc1 are PreQ1: inactive; TPP: inactive; SAM-II: inactive.
Calls for OCc1nc2ccccc2n1CCCOc1ccc(Cl)cc1 are PreQ1: inactive; TPP: inactive.
Calls for CN(Cc1cc(-c2cccs2)n[nH]1)C(=O)c1cn(CC2CCCNC2)nn1 (stereo not given) are PreQ1: inactive; TPP: inactive; SAM-II: inactive.
Calls for Cc1ccc(Nc2c3c(nc4nncn24)CCC3)cc1C are PreQ1: inactive; TPP: inactive.
Calls for Cc1ccc(NC(=O)c2nnn(Cc3ccc(F)cc3Cl)c2N)cc1C are PreQ1: inactive; TPP: inactive; SAM-II: inactive.
Calls for COc1ccc2c(c1)C(=O)C1NC(=O)NC(=O)C1(Br)N2 (stereo not given) are PreQ1: inactive; TPP: inactive; SAM-II: inactive.
Calls for Fc1ccccc1CCNCc1ccccc1F are PreQ1: inactive; TPP: inactive; SAM-II: inactive.
Calls for O=P([O-])(O)C(O)(Cc1cccnc1)P(=O)(O)O.[Na+] are PreQ1: inactive; TPP: inactive; SAM-II: inactive.
Calls for CC(=O)c1nnn(-c2ccc(Cl)cc2)c1Nc1ccc(F)cc1F are PreQ1: inactive; TPP: inactive.
Calls for Cc1cccc(C)c1Nc1c(-c2ccc(N3CCOCC3)cc2)nc2cnccn12 are PreQ1: inactive; TPP: inactive; SAM-II: inactive.
Calls for Cc1ccccc1-c1nc(CN2CC[C@@H](c3sccc3C)[C@H](O)C2)c(C)o1 are PreQ1: inactive; TPP: inactive; SAM-II: inactive.
Calls for COc1ccc(-c2noc(NCCCN3CCCC3=O)n2)cc1OC are PreQ1: inactive; TPP: inactive.
Calls for Cc1cccc(Cn2c(CCNC(=O)CCCO)nc3ccccc32)c1 are PreQ1: inactive; TPP: inactive.
Calls for CC1CCCN(CC(O)COCc2ccc(Cl)cc2)C1 (stereo not given) are PreQ1: inactive; TPP: inactive; SAM-II: inactive.
Calls for O=C(NCc1ccncc1)C12C[C@H]3C[C@@H](C1)CC(c1ccc(Cl)cc1)(C3)C2 are PreQ1: inactive; TPP: inactive; SAM-II: inactive.
Calls for CCOC(=O)c1sc(Nc2ccccc2Cl)nc1C are PreQ1: inactive; TPP: inactive; SAM-II: inactive.
Calls for COc1cccc(OCC(O)CNC(=O)CC(=O)Nc2cccc(C)c2C)c1 (stereo not given) are PreQ1: inactive; TPP: inactive; SAM-II: inactive.
Calls for Cc1cc2oc(=O)cc(C)c2cc1NC(=O)[C@@H](O)Cc1ccccc1 are PreQ1: inactive; TPP: inactive; SAM-II: inactive.

From ROBIN, a set of small-molecule microarray screens (doi:10.1002/anie.202211358).